Laboratory results as given in patent US12662489B2 (Sitryx Therapeutics Limited, priority 2023, dated 2026).
At least one compound was matched to its structure with a doubt left.

Biological target: T1, MTHFD2 recombinant human enzyme (Homo sapiens, UniProt P13995)
T1 sequence (P13995 36-350): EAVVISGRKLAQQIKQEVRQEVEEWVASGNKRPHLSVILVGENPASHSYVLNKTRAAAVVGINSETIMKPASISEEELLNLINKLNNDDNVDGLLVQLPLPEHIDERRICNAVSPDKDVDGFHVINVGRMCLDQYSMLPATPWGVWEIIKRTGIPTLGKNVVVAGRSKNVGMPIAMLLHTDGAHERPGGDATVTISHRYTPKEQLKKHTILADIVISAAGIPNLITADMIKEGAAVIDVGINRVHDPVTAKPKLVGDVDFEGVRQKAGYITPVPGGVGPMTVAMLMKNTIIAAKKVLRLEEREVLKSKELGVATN
Test: MTHFD2 inhibition assay (NAD(P)H-Glo luminescence)
Details: selectivity of MTHFD2 inhibition over MTHFD1, band

Row | Structure (SMILES) | MTHFD1/MTHFD2 IC50 ratio
1 | COC[C@H]1CN(c2cc(C)c3c4c(c(=O)oc3c2C)CN(C(=O)c2ccc(C(=O)NS(=O)(=O)C3(C)CC3)c(N3C5CCC3CC5)c2F)CC4)CCN1C [Example 73, (R)-2-(7-azabicyclo[2.2.1]heptan-7-yl)-3-fluoro-4-(8-(3-(methoxymethyl)-4-methylpiperazin-1-yl)-7,10-dimethyl-5-oxo-1,3,4,5-tetrahydro-2H-chromeno[3,4-c]pyridine-3-carbonyl)-N-((1-methylcyclopropyl)sulfonyl)benzamide] | F (<3)
2 | COC[C@H]1CN(c2cc(F)c3c4c(c(=O)oc3c2C)CN(C(=O)c2cc(N(C)C)c(C(=O)NS(=O)(=O)N3C5CCC3CC5)cc2F)CC4)CCN1C [Example 304, (R)-N-((7-azabicyclo[2.2.1]heptan-7-yl)sulfonyl)-2-(dimethylamino)-5-fluoro-4-(10-fluoro-8-(3-(methoxymethyl)-4-methylpiperazin-1-yl)-7-methyl-5-oxo-1,3,4,5-tetrahydro-2H-chromeno[3,4-c]pyridine-3-carbonyl)benzamide] | J (>30)
3 | COC[C@H]1CN(c2cc(Cl)c3c4c(c(=O)oc3c2C)CN(C(=O)c2cc(OC3CC3)c(C(=O)NS(=O)(=O)N3C5CCC3COC5)cc2F)CC4)CCN1C [Example 307, N-((3-oxa-8-azabicyclo[3.2.1]octan-8-yl)sulfonyl)-4-(10-chloro-8-((R)-3-(methoxymethyl)-4-methylpiperazin-1-yl)-7-methyl-5-oxo-1,3,4,5-tetrahydro-2H-chromeno[3,4-c]pyridine-3-carbonyl)-2-cyclopropoxy-5-fluorobenzamide] | J (>30)
